# Measured values: the supplement of paper PMC12819154, “High-throughput peptide-centric local stability assay extends protein–ligand identification to membrane proteins, tissues and bacteria” (Nature Structural & Molecular Biology, 2025)
# Amino acid sequences for entries named in this document (tags omitted). A change or cut given only in a name is not applied to a line headed by its entry.
# UniProt Q5SZL2: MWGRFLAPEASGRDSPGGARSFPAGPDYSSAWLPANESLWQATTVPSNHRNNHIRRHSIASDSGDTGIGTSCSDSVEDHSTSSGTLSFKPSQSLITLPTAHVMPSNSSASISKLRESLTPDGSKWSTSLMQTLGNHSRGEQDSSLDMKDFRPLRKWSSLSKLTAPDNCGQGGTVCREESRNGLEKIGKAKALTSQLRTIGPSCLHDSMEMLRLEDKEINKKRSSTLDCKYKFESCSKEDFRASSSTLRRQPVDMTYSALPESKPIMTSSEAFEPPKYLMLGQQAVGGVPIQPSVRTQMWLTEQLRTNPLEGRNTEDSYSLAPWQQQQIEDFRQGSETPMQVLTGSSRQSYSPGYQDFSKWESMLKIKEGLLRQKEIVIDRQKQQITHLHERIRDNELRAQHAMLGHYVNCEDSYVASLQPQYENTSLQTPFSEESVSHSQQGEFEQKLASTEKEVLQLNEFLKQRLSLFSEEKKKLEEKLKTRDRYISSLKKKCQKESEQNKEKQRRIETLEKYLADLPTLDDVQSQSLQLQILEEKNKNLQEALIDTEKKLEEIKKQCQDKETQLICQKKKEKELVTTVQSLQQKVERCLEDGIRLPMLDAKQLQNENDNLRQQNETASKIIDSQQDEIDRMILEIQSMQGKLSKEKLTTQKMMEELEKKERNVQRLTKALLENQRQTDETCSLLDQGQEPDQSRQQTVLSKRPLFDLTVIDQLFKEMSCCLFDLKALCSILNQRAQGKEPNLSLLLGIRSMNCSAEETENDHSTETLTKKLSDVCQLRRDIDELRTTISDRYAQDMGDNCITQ
# UniProt Q5RIA9: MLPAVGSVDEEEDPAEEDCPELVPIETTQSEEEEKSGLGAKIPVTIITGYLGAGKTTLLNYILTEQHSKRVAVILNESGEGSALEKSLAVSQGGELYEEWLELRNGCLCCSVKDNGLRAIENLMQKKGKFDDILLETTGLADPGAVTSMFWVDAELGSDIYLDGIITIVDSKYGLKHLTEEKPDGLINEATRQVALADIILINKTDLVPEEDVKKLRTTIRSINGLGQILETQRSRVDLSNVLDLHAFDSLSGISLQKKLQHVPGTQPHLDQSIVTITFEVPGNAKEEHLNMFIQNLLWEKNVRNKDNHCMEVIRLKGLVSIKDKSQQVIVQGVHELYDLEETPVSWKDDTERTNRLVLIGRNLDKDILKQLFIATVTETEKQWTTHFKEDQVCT
# UniProt Q5BJE1: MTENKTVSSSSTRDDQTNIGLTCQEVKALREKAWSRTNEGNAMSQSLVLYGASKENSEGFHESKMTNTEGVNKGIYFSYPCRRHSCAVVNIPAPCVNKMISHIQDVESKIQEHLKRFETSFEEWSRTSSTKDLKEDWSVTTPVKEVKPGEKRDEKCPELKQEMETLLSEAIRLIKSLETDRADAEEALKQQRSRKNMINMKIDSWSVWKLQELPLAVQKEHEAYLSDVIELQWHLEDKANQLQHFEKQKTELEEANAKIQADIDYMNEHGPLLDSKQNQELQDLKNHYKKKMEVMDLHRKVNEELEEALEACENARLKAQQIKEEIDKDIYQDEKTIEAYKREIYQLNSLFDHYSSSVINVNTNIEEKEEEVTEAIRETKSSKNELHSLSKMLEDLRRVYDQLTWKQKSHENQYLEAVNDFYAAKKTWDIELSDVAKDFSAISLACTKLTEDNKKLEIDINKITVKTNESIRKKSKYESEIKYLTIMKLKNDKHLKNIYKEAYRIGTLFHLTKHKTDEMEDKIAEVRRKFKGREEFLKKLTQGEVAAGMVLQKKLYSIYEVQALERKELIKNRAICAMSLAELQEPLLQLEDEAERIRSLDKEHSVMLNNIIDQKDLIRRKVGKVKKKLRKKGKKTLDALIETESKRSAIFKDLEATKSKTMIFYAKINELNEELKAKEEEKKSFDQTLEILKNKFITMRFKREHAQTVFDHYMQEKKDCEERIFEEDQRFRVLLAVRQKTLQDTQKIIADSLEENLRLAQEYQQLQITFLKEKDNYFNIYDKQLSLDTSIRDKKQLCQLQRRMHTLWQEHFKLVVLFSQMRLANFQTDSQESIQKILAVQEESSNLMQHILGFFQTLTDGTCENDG
# UniProt Q5JPI9: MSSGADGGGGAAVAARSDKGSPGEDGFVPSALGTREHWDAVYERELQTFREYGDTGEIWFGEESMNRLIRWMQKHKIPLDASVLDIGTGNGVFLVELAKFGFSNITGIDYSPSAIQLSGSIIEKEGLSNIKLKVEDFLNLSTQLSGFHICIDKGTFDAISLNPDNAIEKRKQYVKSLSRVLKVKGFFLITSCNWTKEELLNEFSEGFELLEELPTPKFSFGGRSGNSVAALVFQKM
# UniProt Q4V328: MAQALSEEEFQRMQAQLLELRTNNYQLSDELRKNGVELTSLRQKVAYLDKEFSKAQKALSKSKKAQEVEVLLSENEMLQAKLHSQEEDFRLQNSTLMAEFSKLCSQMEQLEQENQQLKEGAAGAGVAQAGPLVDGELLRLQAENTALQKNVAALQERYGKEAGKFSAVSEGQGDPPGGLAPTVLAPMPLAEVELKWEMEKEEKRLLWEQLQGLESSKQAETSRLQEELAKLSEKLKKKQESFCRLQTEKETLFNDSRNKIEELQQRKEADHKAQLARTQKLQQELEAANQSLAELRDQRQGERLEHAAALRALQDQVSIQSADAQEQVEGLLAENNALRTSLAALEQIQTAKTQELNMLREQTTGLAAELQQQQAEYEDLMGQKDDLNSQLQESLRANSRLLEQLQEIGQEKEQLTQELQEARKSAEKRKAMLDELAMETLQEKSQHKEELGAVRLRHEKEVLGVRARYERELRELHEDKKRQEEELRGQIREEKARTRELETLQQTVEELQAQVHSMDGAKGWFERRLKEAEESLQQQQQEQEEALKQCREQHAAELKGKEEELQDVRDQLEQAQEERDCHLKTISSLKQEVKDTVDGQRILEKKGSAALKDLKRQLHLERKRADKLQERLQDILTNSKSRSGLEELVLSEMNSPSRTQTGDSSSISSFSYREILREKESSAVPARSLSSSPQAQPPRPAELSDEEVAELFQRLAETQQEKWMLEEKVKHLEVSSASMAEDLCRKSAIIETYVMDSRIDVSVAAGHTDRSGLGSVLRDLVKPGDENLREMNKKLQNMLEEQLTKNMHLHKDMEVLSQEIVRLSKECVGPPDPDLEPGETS
# UniProt Q5T5D7: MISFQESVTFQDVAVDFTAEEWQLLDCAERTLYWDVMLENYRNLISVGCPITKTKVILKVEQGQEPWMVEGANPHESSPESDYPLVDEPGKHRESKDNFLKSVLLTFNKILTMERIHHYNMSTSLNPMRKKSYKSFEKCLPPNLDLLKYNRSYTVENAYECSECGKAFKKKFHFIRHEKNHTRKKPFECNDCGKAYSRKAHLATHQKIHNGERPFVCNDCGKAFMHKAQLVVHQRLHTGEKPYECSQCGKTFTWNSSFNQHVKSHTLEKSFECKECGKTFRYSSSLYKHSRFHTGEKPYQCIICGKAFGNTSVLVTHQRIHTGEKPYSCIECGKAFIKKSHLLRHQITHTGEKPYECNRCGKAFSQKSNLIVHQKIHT
# UniProt Q5UIP0: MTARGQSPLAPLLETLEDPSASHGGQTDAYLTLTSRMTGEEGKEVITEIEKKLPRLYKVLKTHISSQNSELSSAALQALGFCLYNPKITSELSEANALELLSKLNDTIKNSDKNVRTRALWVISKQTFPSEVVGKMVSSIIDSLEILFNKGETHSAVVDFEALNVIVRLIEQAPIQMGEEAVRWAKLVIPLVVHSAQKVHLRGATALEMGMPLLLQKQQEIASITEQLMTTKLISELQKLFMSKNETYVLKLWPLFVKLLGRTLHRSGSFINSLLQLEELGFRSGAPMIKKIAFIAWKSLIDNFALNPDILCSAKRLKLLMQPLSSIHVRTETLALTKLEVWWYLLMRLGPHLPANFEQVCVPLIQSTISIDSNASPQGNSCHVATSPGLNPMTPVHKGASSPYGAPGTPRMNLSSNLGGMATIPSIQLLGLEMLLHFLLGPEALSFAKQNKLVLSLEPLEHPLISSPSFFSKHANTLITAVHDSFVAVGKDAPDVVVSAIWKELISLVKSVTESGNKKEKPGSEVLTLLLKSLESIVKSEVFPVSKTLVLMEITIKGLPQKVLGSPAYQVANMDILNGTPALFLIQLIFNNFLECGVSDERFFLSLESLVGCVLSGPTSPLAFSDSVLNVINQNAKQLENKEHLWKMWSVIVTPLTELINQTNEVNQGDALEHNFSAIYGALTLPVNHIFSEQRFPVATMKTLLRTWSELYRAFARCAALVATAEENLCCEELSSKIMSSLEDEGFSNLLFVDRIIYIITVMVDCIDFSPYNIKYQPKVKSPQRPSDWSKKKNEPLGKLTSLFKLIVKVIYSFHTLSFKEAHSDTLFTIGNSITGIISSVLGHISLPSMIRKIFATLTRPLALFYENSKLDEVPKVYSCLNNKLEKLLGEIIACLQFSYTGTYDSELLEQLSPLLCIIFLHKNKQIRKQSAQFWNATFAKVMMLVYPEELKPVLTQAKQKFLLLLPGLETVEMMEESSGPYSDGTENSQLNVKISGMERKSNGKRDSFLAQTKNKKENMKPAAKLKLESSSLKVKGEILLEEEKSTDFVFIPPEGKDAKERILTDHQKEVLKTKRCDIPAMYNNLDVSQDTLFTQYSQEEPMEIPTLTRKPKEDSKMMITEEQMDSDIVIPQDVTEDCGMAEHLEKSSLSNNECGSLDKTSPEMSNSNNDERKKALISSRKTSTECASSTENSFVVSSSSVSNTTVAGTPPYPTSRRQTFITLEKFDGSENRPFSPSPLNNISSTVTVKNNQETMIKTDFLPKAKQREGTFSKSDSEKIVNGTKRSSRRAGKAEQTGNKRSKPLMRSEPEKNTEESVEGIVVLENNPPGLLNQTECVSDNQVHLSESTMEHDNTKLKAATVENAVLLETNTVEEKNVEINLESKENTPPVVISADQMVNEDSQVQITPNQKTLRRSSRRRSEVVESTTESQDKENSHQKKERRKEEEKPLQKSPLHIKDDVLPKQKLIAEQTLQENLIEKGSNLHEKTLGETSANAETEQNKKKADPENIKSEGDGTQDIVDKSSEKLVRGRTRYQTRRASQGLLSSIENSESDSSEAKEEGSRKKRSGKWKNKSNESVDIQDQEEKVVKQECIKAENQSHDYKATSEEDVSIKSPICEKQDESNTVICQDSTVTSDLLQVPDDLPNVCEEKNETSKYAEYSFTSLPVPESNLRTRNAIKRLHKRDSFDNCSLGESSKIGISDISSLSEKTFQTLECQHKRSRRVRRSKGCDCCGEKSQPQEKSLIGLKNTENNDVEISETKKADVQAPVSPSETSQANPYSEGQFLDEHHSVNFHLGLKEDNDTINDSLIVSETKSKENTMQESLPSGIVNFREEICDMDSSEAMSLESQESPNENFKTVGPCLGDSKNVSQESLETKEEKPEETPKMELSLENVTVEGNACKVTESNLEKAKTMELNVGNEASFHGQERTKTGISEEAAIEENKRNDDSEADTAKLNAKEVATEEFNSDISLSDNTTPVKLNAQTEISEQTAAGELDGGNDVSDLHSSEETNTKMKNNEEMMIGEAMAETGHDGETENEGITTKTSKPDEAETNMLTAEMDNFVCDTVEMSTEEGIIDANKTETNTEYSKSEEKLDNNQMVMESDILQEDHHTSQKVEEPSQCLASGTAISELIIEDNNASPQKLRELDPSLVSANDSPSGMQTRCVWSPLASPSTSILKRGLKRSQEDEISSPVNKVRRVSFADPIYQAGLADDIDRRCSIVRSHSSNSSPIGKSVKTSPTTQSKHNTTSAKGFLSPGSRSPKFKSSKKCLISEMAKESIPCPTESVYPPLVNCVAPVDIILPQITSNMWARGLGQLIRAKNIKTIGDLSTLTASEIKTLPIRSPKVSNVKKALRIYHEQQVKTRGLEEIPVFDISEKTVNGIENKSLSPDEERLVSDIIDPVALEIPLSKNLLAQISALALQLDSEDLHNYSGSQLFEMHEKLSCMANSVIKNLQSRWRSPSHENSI
# UniProt Q53T94: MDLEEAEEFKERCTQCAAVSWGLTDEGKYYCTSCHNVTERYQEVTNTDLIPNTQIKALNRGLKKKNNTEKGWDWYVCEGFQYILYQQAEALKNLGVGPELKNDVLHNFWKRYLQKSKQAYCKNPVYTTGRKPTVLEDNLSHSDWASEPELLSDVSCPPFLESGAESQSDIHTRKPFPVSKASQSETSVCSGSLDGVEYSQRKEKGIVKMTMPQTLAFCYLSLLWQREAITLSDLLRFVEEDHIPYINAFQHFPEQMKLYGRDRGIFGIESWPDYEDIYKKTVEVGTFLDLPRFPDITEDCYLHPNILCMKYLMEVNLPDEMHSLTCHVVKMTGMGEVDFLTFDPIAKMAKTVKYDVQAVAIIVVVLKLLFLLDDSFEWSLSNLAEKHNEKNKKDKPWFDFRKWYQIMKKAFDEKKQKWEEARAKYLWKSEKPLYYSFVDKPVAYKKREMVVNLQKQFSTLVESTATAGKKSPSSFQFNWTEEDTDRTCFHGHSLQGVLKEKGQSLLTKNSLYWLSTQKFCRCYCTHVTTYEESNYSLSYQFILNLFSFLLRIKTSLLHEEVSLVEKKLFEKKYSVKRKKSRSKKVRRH
# This is one part of the list. Most entries show no effect beyond the scatter of the controls.
# Compound: CN[C@@H]1C[C@H]2O[C@@](C)([C@@H]1OC)n1c3ccccc3c3c4c(c5c6ccccc6n2c5c31)C(=O)NC4 [staurosporine]
# Test: log2 fold change of tryptic peptide abundance, ligand vs vehicle (limited proteolysis) (log2 ratio); higher = more trypsin-susceptible (destabilized)
# Conditions: ligand concentration: 20 uM; sample: K562 cleared lysate; digestion: 4 min, 22 C (HT-PELSA RT4min, Orbitrap Astral)
row,Target,log2 fold change
1,"CEP85L (peptide sequence: AQGKEPNLSLLLGIR, peptide start residue: 737) (UniProt Q5SZL2)",0.373
2,"FAM76B (peptide sequence: SSATIQNETPK, peptide start residue: 207) (UniProt Q5HYJ3)",-0.199
3,"DOP1A (peptide sequence: TLGWEPGHLLLTICTVR, peptide start residue: 2375) (UniProt Q5JWR5)",-0.328
4,"C5orf22 (peptide sequence: ILQELYQFK, peptide start residue: 274) (UniProt Q49AR2)",-0.0871
5,"STXBP5 (peptide sequence: KLSLPTDLKPDLDVK, peptide start residue: 757) (UniProt Q5T5C0)",0.107
6,"CEP55 (peptide sequence: LKGEIAHLK, peptide start residue: 30) (UniProt Q53EZ4)",-0.979
7,"TAF3 (peptide sequence: IKVEPVALAPSPVIPR, peptide start residue: 745) (UniProt Q5VWG9)",0.172
8,"TJAP1 (peptide sequence: MGVHHLHR, peptide start residue: 535) (UniProt Q5JTD0)",0.572
9,"PAGE2B (peptide sequence: IEDEPGDGPDVR, peptide start residue: 80) (UniProt Q5JRK9)",-0.161
10,"KLHL22 (peptide sequence: LPAQPSHPHCVNNTYR, peptide start residue: 13) (UniProt Q53GT1)",-0.0696
11,"HERC4 (peptide sequence: FSGVDMNAAR, peptide start residue: 455) (UniProt Q5GLZ8)",0.334
12,"UniProt Q5SRN2 (peptide sequence: KSCSKIQILK, peptide start residue: 226)",0.13
13,"CBWD5 (peptide sequence: HLTEEKPDGLINEATR, peptide start residue: 177) (UniProt Q5RIA9)",0.00043
14,"RBM26 (peptide sequence: ETQIFVEKLFDAVNTK, peptide start residue: 64) (UniProt Q5T8P6)",0.724
15,"CCDC178 (peptide sequence: FITMRFK, peptide start residue: 696) (UniProt Q5BJE1)",0.334
16,"UniProt Q5JPI9 (peptide sequence: HKIPLDASVLDIGTGNGVFLVELAK, peptide start residue: 75)",-0.141
17,"UniProt Q5T2N8 (peptide sequence: ITVLEALR, peptide start residue: 339)",-0.184
18,"ARHGAP21 (peptide sequence: FKSDSGSLGDAKNEK, peptide start residue: 1711) (UniProt Q5T5U3)",-0.549
19,"GRIPAP1 (peptide sequence: TQELNMLR, peptide start residue: 353) (UniProt Q4V328)",0.295
20,"EARS2 (peptide sequence: AQLDAISEKVDVIAK, peptide start residue: 433) (UniProt Q5JPH6)",0.238
21,"ESCO2 (peptide sequence: VIYKPIVEK, peptide start residue: 170) (UniProt Q56NI9)",0.586

row,Target,log2 fold change
1,"ZNF691 (peptide sequence: SDLTTHQQDHLGK, peptide start residue: 184) (UniProt Q5VV52)",0.313
2,"RNASEH2B (peptide sequence: IKLSDEPVEAK, peptide start residue: 249) (UniProt Q5TBB1)",0.474
3,"UniProt Q5FWF4 (peptide sequence: QRIPFDLPSAAAK, peptide start residue: 271)",0.223
4,"RNF220 (peptide sequence: FEEYEWCGQKR, peptide start residue: 353) (UniProt Q5VTB9)",-0.192
5,"UniProt Q5QP82 (peptide sequence: LTHYIEEANVGR, peptide start residue: 461)",-0.772
6,"UniProt Q5TAX3 (peptide sequence: SCKVNAANLPGPK, peptide start residue: 72)",-0.367
7,"GNAS (peptide sequence: TISVILFLNKQDLLAEK, peptide start residue: 927) (UniProt Q5JWF2)",0.326
8,"PHLDA2 (peptide sequence: YVYFTIVTTDHK, peptide start residue: 67) (UniProt Q53GA4)",-0.581
9,"HSP90AA4P (peptide sequence: HFSVEGQLEFR, peptide start residue: 320) (UniProt Q58FG1)",-0.0956
10,"UniProt Q5JTJ3 (peptide sequence: SSFESSCPQQWIK, peptide start residue: 84)",-0.387
11,"C4orf46 (peptide sequence: EGYDSLKPDD, peptide start residue: 104) (UniProt Q504U0)",0.148
12,"ANKRD39 (peptide sequence: CDAQTHGGATALHR, peptide start residue: 90) (UniProt Q53RE8)",0.393
13,"HABP4 (peptide sequence: YRDDMVKDDYEDDSHVFR, peptide start residue: 330) (UniProt Q5JVS0)",-0.637
14,"UniProt Q5JUR7 (peptide sequence: LRDEDLFR, peptide start residue: 143)",0.403
15,"ARID4B (peptide sequence: KNLLESIPTHSDQEK, peptide start residue: 473) (UniProt Q4LE39)",0.267
16,"TMEM63B (peptide sequence: LALVTDADR, peptide start residue: 72) (UniProt Q5T3F8)",-0.614
17,"UniProt Q5VT97 (peptide sequence: VCCHGTVVLPTLFR, peptide start residue: 758)",0.542
18,"UniProt Q5K130 (peptide sequence: KEAQEKM, peptide start residue: 95)",-0.478
19,"UniProt Q5T5D7 (peptide sequence: NLISVGCPITK, peptide start residue: 43)",0.135
20,"UBE2NL (peptide sequence: DKWSPALQIR, peptide start residue: 93) (UniProt Q5JXB2)",0.128
21,"USP39 (peptide sequence: AHVSPHEMLQAVVLCSK, peptide start residue: 292) (UniProt Q53GS9)",0.28

# A section from further up:
row,Target,log2 fold change
11,"HERC4 (peptide sequence: FSGVDMNAAR, peptide start residue: 455) (UniProt Q5GLZ8)",0.334
12,"UniProt Q5SRN2 (peptide sequence: KSCSKIQILK, peptide start residue: 226)",0.13
13,"CBWD5 (peptide sequence: HLTEEKPDGLINEATR, peptide start residue: 177) (UniProt Q5RIA9)",0.00043

# (list continues)

row,Target,log2 fold change
1,"UniProt Q5FWF6 (peptide sequence: ISVVMQESAEK, peptide start residue: 114)",-0.395
2,"UniProt Q5T3J3 (peptide sequence: SPVLPSGHHLQIPAHAEVK, peptide start residue: 176)",0.276
3,"EFCAB2 (peptide sequence: AFEVLDSAK, peptide start residue: 236) (UniProt Q5VUJ9)",-0.184
4,"RIF1 (peptide sequence: NVSQESLETKEEKPEETPK, peptide start residue: 1871) (UniProt Q5UIP0)",-0.82
5,"UniProt Q5VU92 (peptide sequence: QLELGTVNK, peptide start residue: 91)",0.0161
6,"UniProt Q5T280 (peptide sequence: HQDLQFAGLLNPLDSPHHMR, peptide start residue: 163)",0.393
7,"PPP1R15B (peptide sequence: LLSQLLAPLPGLLQK, peptide start residue: 66) (UniProt Q5SWA1)",-0.704
8,"VPS13D (peptide sequence: VPVVFTQHGVAEPR, peptide start residue: 3525) (UniProt Q5THJ4)",0.588
9,"RC3H1 (peptide sequence: CVEELALYLKPLSSAR, peptide start residue: 102) (UniProt Q5TC82)",-0.25
10,"PCID2 (peptide sequence: HPHVANPR, peptide start residue: 33) (UniProt Q5JVF3)",0.299
11,"PSMG4 (peptide sequence: NLAVAMCSR, peptide start residue: 49) (UniProt Q5JS54)",-0.222
12,"DOCK11 (peptide sequence: LSKPGTAAELR, peptide start residue: 11) (UniProt Q5JSL3)",0.284
13,"SPIN4 (peptide sequence: VLALEILPERVPTPR, peptide start residue: 95) (UniProt Q56A73)",-0.0684
14,"PHF19 (peptide sequence: WAAELDGR, peptide start residue: 490) (UniProt Q5T6S3)",-0.0987
15,"TAF1B (peptide sequence: NSLYWLSTQK, peptide start residue: 509) (UniProt Q53T94)",0.044
16,"UniProt Q5HYC2 (peptide sequence: FIENQEK, peptide start residue: 612)",0.0273
17,"VPS53 (peptide sequence: SEQSSMLELLR, peptide start residue: 781) (UniProt Q5VIR6)",0.316
18,"TBC1D10B (peptide sequence: WLDMFSNWDKWLSR, peptide start residue: 335) (UniProt Q4KMP7)",0.398
19,"UniProt Q5JNZ5 (peptide sequence: PAGAAPRPPPKPM, peptide start residue: 103)",-0.364
20,"UniProt Q5T7V8 (peptide sequence: AEAEYIAAK, peptide start residue: 227)",-0.175
